These are yes or no findings as the source states them, for the method shown. Binding seen in cells or lysates may run through a third protein. Some entries that bind do so weakly or less than the wild type.
How the values were obtained:
[1] = molecular target: FYN (isoform without exon 7), N1-fused (UniProt P06241); experiment: split reporter; Gaussia princeps luciferase complementation assay in human HEK293T cells; Gluc2 at the N terminus of SKAP1 or SKAP2 (N2), Gluc1 at the N terminus (N1) or C terminus (C1) of the SRC kinase; 100 ng plasmid pair, PEI; luminescence read in lysate one day later; normalized luminescence ratio (NLR), given relative to wild type or to SKAP2
[2] = molecular target: HCK Y501F mutant, C1-fused (UniProt P08631); experiment: as above

Protein sequences, listed by entry. Tags and fused reporters are not part of them. Lines headed by an entry give the natural chain unless they say otherwise; changes in a name come on top. Chains listed by the source or under a name are the forms on record and can include a tag or linker.
FYN (isoform without exon 7), N1-fused (P06241, form named): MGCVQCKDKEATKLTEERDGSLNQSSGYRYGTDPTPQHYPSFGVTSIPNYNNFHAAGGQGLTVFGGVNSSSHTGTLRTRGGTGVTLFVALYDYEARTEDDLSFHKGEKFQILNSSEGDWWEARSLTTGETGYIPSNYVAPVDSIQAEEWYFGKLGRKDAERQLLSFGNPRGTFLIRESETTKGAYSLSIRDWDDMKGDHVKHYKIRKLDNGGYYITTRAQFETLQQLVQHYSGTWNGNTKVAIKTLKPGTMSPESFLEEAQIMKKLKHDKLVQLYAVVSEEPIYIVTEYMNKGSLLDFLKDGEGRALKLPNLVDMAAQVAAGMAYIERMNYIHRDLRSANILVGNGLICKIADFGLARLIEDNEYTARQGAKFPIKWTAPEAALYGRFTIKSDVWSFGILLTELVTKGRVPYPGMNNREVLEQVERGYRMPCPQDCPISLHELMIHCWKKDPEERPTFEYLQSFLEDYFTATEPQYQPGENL
HCK Y501F mutant, C1-fused (P08631, form named): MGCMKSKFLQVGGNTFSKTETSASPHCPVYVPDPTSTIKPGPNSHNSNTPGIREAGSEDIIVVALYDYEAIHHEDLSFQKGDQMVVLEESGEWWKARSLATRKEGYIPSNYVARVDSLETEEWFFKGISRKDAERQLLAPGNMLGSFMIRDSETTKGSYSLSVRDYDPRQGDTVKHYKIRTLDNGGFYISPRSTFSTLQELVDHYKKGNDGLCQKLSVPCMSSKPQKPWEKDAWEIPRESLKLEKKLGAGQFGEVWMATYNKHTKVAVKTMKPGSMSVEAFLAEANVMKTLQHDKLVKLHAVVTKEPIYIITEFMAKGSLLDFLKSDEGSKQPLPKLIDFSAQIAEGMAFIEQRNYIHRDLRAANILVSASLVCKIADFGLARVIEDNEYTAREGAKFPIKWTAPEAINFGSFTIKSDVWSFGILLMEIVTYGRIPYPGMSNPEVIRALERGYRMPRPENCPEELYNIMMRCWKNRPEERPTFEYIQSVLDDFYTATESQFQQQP
UniProt Q86WV1: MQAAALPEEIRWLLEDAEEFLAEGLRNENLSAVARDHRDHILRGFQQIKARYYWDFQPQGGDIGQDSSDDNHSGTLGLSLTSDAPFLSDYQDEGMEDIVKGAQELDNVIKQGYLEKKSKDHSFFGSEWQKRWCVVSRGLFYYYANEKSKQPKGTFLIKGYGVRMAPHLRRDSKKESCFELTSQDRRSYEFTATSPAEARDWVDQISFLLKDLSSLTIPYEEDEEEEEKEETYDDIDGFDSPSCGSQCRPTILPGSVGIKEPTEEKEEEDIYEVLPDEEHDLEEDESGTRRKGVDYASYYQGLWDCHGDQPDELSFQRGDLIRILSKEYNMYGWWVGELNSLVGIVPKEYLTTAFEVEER
UniProt O75563: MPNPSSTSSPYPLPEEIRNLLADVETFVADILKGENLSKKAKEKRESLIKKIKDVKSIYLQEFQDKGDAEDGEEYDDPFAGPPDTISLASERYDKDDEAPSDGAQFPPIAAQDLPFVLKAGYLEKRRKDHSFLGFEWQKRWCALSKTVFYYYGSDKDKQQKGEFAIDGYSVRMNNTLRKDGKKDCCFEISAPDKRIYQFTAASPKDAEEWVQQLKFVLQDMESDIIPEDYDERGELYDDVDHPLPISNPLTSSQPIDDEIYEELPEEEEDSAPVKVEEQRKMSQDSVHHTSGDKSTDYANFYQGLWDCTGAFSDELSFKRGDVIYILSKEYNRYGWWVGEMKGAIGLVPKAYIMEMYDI

| binding [1] | binding [2] | Substance |
| --- | --- | --- |
| binds | binds | SRC kinase associated phosphoprotein 1 (SKAP1), wild type, N2-fused (from UniProt Q86WV1 1-359) |
| binds | binds | SRC kinase associated phosphoprotein 2 (SKAP2), wild type, N2-fused (from UniProt O75563 1-359) |

From paper PMC10939263
